One assay addresses T1, GST-OsVP1 (rice) (UniProt P37398).
T1 sequence: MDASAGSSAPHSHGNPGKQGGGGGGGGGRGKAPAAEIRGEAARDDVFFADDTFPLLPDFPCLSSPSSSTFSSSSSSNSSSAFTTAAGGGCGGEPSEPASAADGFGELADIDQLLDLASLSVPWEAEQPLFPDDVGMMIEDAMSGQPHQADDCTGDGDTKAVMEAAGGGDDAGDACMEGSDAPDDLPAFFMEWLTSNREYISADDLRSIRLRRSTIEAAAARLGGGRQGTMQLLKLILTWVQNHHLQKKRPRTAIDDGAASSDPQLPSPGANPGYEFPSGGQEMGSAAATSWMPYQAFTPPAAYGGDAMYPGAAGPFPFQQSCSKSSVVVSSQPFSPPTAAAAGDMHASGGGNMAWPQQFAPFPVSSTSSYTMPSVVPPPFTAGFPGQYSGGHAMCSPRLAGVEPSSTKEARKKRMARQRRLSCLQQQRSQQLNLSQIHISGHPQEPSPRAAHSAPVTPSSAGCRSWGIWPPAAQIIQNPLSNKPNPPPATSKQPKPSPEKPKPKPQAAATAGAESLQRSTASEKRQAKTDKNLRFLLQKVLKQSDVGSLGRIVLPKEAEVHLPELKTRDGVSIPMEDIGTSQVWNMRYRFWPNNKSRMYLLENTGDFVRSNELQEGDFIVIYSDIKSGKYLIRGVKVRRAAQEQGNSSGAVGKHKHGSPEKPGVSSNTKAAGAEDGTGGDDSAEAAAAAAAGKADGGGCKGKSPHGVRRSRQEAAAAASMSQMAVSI
Description: pull-down; GST-OsHOX3 or GST-OsVP1 as bait on GST beads, equal quantities of recombinant proteins in GST pull-down buffer at 4 °C overnight, His-OsGF14h detected by anti-His; both purified.

The target of a further assay is T2, GST-OsHOX3 (rice) (UniProt Q0JKX1).
T2 sequence: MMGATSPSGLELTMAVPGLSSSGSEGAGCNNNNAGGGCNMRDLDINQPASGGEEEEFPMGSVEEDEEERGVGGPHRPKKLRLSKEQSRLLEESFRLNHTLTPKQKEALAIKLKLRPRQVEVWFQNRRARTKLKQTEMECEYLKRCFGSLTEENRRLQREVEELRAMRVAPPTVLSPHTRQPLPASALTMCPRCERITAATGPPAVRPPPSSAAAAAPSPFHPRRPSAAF
Described as above.

In assay [1] the target is OsGF14h^WR04-6-GFP (pBWA(V)HS-OsGF14h-GFP) (weedy rice (Oryza sativa f. spontanea) WR04-6). Description: co-IP; OsGF14h-GFP and 3×FLAG-HOX3 or 3×FLAG-VP1 co-expressed in N. benthamiana leaves; GFP-Trap agarose 2 h; washes in 10 mM Tris-HCl pH 8.0, 150 mM NaCl, 0.5 mM EDTA, 2 mM DTT, 0.1% NP-40; anti-FLAG blot.
Assay [2] deals with OsGF14h^WR04-6 fused with nLuc (pCAMBIA1300-nLuc) (weedy rice (Oryza sativa f. spontanea) WR04-6). Briefly: split reporter; luciferase complementation imaging, nLuc and cLuc fusions co-expressed in N. benthamiana leaves, 23 °C for 48 h, 1 mM luciferin.
In assay [3] the target is OsGF14h^WR04-6 (pGBKT7-OsGF14h, two-hybrid bait) (weedy rice (Oryza sativa f. spontanea) WR04-6). Briefly: two-hybrid; pairwise, pGBKT7-OsGF14h with pGADT7-OsHOX3 or pGADT7-VP1 in strain Y2H Gold; growth on SD/-Leu-Trp-His-Ade.

No constants are given. Whether binding was seen depends on the method and setting. Binding calls can cover weak binding; strength is not graded here. For some assays here: Tags and fused reporters may be left off the sequences shown. For some assays here: Binding seen in cells or lysates may run through a third protein.

For the molecule His-OsGF14h^WR04-6, the binding entry with GST-OsVP1 (rice) and with GST-OsHOX3 (rice) was “binds” in each case.

B1: 3×FLAG-VP1 (pBWA(V)HS-3×FLAG-VP1) (protein, UniProt P37398 1-727)
chain: T1 sequence
With B1, in assay [1], the binding entry is given as “binds”.

B2: OsVP1 fused with cLuc (pCAMBIA1300-cLuc) (protein, UniProt P37398 1-727)
chain: T1 sequence
On to B2, for which the binding result in assay [2] is on record as “binds”.

B3: OsVP1 (pGADT7-VP1, two-hybrid prey) (protein, UniProt P37398 1-727)
chain: T1 sequence
Regarding B3, the binding result in assay [3] is on record as “binds”.

B4: 3×FLAG-HOX3 (pBWA(V)HS-3×FLAG-HOX3) (protein, UniProt Q0JKX1 1-229)
chain: T2 sequence
In the case of B4, in assay [1], the binding entry is given as “binds”.

B5: OsHOX3 fused with cLuc (pCAMBIA1300-cLuc) (protein, UniProt Q0JKX1 1-229)
chain: T2 sequence
For B5, the binding result in assay [2] is recorded as “binds”.

B6: OsHOX3 (pGADT7-OsHOX3, two-hybrid prey) (protein, UniProt Q0JKX1 1-229)
chain: T2 sequence
With B6, the binding entry in assay [3] is “binds”.

For the origin of these results see article PMC9522936, “Regain flood adaptation in rice through a 14-3-3 protein OsGF14h” (Nature Communications, 2022).
